The values are deposited in ChEMBL (CHEMBL3988442, “University of Dundee, Small-Polar-MMV Screening Library” (2021)).

Mtb cholesterol medium: 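Whole-cell growth test on Mycobacterium tuberculosis, read after 4 days in a medium based on cholesterol and the lipid DPPC; the read-out is not stated. Tested at 50 µM. The record gives no direction; compounds that gave an IC50 in retests scored well above the rest, so higher reads as more growth inhibition. Of about 69,000 compounds tested this way, about 370 (0.54%) reached 50% or more in at least one test.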
Mtb glucose medium: 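Growth of Mycobacterium tuberculosis over 3 days (7H9 medium with glucose and tyloxapol); the read-out is not stated. Concentration: 50 µM. Direction is inferred from retests: higher values go with more growth inhibition. Of about 69,000 compounds tested this way, about 760 (1.1%) reached 50% or more in at least one test.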

Values are the deposited “Percent Effect”, in %.
The record does not define 0% and 100%; most values in the screen are far below 50% and negative numbers occur (in some assays of this library far below -100).
Compounds were drawn at random from those tested, without regard to their results.
Two or more numbers in one place are separate tests of the same structure; such repeats can differ widely.

| structure | Mtb cholesterol medium | Mtb glucose medium |
|---|---|---|
| `O=C1NCC2(CCCN(C(=O)Nc3ccc4occc4c3)CC2)O1` (stereo not drawn) | 13.34% | 0.8064% |
| `Cl.O=C([C@H]1CCCO1)N1CCC2(CC1)CNCc1ccccc12` | -3.055% | -0.06049% and -22.36% |
| `NC(=O)C1CCN(c2nc3nccc(-c4ccccc4)c3c(=O)[nH]2)CC1` | -14.13% | 2.288% |
| `CC(c1nc(C(C)(C)C)no1)N1CCN(CC(=O)N2CCOCC2)CC1` (stereo not drawn) | 4.435% | 15.59% and -1.956% |
| `CCC(Nc1nnnn1-c1ccccc1)C(=O)Nc1nc(C)cs1` (stereo not drawn) | -8.526% | 23.15% |
| `CCN(C(=O)CN1CCCC1c1cc(C)no1)c1ccccc1C` (stereo not drawn) | 14.36% | 16.64% |
| `CCN(CC)C(=O)CN(C)C1CCc2ccccc21` (stereo not drawn) | -4.564% | 4.179% |
| `CC(C)CCC(=O)NC(C#N)CC(C)C` (stereo not drawn) | 5.077% | 30.42% |
| `Cc1ccccc1N1CCCN(C(=O)c2cn(C)c3ccccc23)CC1` | -3.606% | -21.48% |
| `COC(=O)c1cccc(S(=O)(=O)Nc2ccc(Cl)c(C(N)=O)c2)c1` | -25.38% | 2.403% and 1.069% |
| `CCCc1nc(C)c(C(=O)NCCN2CCOCC2)s1` | -12.15% | -23.59% |
| `Cc1noc(-c2ccc(N3CCC(C(=O)N4CCCC4)CC3)nc2)n1` | -3.728% and 0.3237% | 24.95% |
| `COc1cc(C)ccc1OCc1nc(C(=O)N2CCCNC(=O)C2)co1` | -5.586% | -26.29% |
| `Cc1nn(C)c(C)c1CN(C(=O)c1cc(Cl)c[nH]c1=O)C(C)C` | -1.51% | 10.57% |
| `Cc1nc(COc2ccc(CNCC3CN(C)CCO3)cc2)cs1` (stereo not drawn) | 1.309% | 1.211% |
| `Cc1cc(C)n(CC(C)NCc2nc(-c3cccnc3)no2)n1` (stereo not drawn) | -8.088% | -12.37% |
| `N#Cc1ccc(N2CCCN(CCCn3cncn3)CC2)cc1` | -21.52% | -4.213% and -1.267% |
| `CCCc1nccn1-c1ccc(C(O)CN2CCOCC2)cc1` (stereo not drawn) | -8.803% | 5.405% |
| `CC(C)c1nccn1-c1cncc(C2CCCN(C3CCCCC3)C2)n1` (stereo not drawn) | -7.168% | 5.621% |
| `O=C(O)c1ccc(N2CCC(Oc3ccc(Cl)cc3)CC2)nc1` | 4.26% | 3.926% |
| `CN(C)S(=O)(=O)Nc1ccc(Oc2ccc3c(c2)OCO3)cc1` | 20.28% | 22.13% |
| `Cc1cnn(C2CN(Cc3nnc(Cc4ccccc4)o3)C2)c1` | 9.952% | 28.71% and 11.54% |
| `Cc1nc(SC2CCN(c3sccc3C#N)C2=O)oc1C` (stereo not drawn) | -5.102% | 14.26% |
| `Nc1cc(C(=O)NCC2CCN(CCc3ccccc3)C2)ccn1` (stereo not drawn) | 11.51% | 19.76% |
| `CCN1N=C(C(=O)N2CCCC(c3nc(C)c(C)s3)C2)CCC1=O` (stereo not drawn) | -12.42% | -5.052% |
| `CN(C)C(=O)CN1CCOCC2(C1)CN(c1ncc(F)cn1)CCO2.O=C(O)C(F)(F)F` (stereo not drawn) | -4.456% | -10.68% |
| `O=C(c1ccc(F)c(F)c1)N1CCC(Cn2cc(CO)nn2)CC1` | -7.944% | 1.649% |
| `Cc1ccc(CN2CCc3ncc(CNC(=O)C4CCC4)n3CC2)o1.O=C(O)C(F)(F)F` | 16.3% | 6.396% |
| `Cc1nc(N)cc(N2CCCC(COc3cccc(F)c3)C2)n1` (stereo not drawn) | 87.21% | 61.39% |
| `Cc1ccc(F)c2c1CCCN2Cc1cc(=O)n(C)c(=O)n1C` | 4.98% and -5.686% | 15.93% |
| `CCNC(=O)c1ccc(NC(=O)N(C)Cc2cc(C)on2)c(C)c1` | -1.439% | 6.52% |
| `O=C(NCCc1ccn(-c2ccc(F)cc2)n1)C1CCCOC1` (stereo not drawn) | -2.398% and -1.582% | 2.277% |
| `Cc1[nH]ccc1C(=O)NC1CCC(N2C(=O)CCC2=O)CC1` (stereo not drawn) | -4.746% | -11.99% |
| `CN(Cc1cc(-c2ccccc2)no1)C(=O)CNS(C)(=O)=O` | 4.039% | -27.22% |
| `COCCN1C(=O)CC(c2cccnc2)C12CCN(C(=O)C1CC1)CC2.O=C(O)C(F)(F)F` (stereo not drawn) | 4.182% | 11.41% |
| `CCOc1ccc(CN(C)C(=O)NC(C)c2nncn2C)cc1` (stereo not drawn) | -82.91% | -7.952% and -24.44% |
| `O=C(Cc1cccs1)NCC1(O)CCSC1` (stereo not drawn) | 13.72% | 10.94% |
| `COc1ccc(Oc2nccnc2C2CCN(C(C)=O)CC2)cc1` | 1.755% | 6.169% |
| `N#Cc1cccc(N2CCC(c3nccn3Cc3cscn3)CC2)n1` | 6.314% and 3.58% | -28.98% |
| `CC(C)n1cc(C(=O)NC2CCS(=O)(=O)C2)c2ccccc2c1=O` (stereo not drawn) | -14.68% | -1.806% |
| `c1ccc2sc(N3CCC4(CCCN4Cc4ncc[nH]4)CC3)nc2c1` | 17% | 28.15% |
| `Cl.Clc1cccc(N[C@H]2CCCN[C@H]2Cc2ccccc2)c1` | 111.3% | 116.2% |
| `COC(=O)c1cccn1C1CCN(C(=O)c2cn[nH]c2C)CC1` | -7.115% | -4.548% |
| `CC(=O)N1N=C(c2ccccc2)OC1C(=O)NCCN(C(C)C)C(C)C` (stereo not drawn) | -8.605% | -8.635% |
| `CC(C)N1CCC(Cc2cc(-c3cccc(C(=O)O)c3)ncn2)C1` (stereo not drawn) | -10.23% | 0.822% |
| `O=C(N1CCOCC1)N1CCN(c2ccnc3ccsc23)CC1` | 1.137% and 8.078% | 12.39% |
| `Cl.NC(=O)COc1ccc(CNCc2cc(F)cc(F)c2)cc1` | -5.168% | -19.43% |
| `NC(=O)C1CCCN1Cc1cccc(NC(=O)c2cccs2)c1` (stereo not drawn) | -18.78% and -10.42% | -39.74% |
| `CCc1cc(NC2CCS(=O)(=O)CC2)nc(N2CCCCC2)n1` | -27.08% | 14.59% |
| `Cc1ccc(C2CN(Cc3cnc(-c4cccnc4)s3)CCO2)o1` (stereo not drawn) | 36.02% | 28.03% |
| `O=C(NCCOc1ncc(Cl)cc1Cl)c1ccncc1` | 0.99% and -6.85% | 0.8383% |
| `CN1CCN(Cc2ccccc2CNC(=O)c2ccc(Cl)cc2F)CC1` | -9.892% | 15.63% and 13.93% |
| `Cc1nccc(C2CN(Cc3ccc(-c4ccccc4C(=O)O)o3)C2)n1` | 10.59% and -3.871% | 12.32% |
| `Cc1nn(C)c(C)c1NC(=O)CNc1cc(C(F)(F)F)ccc1F` | -32.17% | 2.526% |

4 of the entries, repeated:

structure,Mtb cholesterol medium,Mtb glucose medium
CC(C)c1nccn1-c1cncc(C2CCCN(C3CCCCC3)C2)n1 (stereo not drawn),-7.168%,5.621%
NC(=O)C1CCN(c2nc3nccc(-c4ccccc4)c3c(=O)[nH]2)CC1,-14.13%,2.288%
N#Cc1ccc(N2CCCN(CCCn3cncn3)CC2)cc1,-21.52%,-4.213% and -1.267%
CCN1N=C(C(=O)N2CCCC(c3nc(C)c(C)s3)C2)CCC1=O (stereo not drawn),-12.42%,-5.052%